Reference: paper PMC12616069
These are yes or no findings as the source states them, for the method shown. In cells and extracts the contact can be indirect. Some results given as binding are weak or reduced against the parent protein; the word gives no strength.

Protein sequences, listed by entry. Tags and fused reporters are not part of them.
UniProt Q9UKE5: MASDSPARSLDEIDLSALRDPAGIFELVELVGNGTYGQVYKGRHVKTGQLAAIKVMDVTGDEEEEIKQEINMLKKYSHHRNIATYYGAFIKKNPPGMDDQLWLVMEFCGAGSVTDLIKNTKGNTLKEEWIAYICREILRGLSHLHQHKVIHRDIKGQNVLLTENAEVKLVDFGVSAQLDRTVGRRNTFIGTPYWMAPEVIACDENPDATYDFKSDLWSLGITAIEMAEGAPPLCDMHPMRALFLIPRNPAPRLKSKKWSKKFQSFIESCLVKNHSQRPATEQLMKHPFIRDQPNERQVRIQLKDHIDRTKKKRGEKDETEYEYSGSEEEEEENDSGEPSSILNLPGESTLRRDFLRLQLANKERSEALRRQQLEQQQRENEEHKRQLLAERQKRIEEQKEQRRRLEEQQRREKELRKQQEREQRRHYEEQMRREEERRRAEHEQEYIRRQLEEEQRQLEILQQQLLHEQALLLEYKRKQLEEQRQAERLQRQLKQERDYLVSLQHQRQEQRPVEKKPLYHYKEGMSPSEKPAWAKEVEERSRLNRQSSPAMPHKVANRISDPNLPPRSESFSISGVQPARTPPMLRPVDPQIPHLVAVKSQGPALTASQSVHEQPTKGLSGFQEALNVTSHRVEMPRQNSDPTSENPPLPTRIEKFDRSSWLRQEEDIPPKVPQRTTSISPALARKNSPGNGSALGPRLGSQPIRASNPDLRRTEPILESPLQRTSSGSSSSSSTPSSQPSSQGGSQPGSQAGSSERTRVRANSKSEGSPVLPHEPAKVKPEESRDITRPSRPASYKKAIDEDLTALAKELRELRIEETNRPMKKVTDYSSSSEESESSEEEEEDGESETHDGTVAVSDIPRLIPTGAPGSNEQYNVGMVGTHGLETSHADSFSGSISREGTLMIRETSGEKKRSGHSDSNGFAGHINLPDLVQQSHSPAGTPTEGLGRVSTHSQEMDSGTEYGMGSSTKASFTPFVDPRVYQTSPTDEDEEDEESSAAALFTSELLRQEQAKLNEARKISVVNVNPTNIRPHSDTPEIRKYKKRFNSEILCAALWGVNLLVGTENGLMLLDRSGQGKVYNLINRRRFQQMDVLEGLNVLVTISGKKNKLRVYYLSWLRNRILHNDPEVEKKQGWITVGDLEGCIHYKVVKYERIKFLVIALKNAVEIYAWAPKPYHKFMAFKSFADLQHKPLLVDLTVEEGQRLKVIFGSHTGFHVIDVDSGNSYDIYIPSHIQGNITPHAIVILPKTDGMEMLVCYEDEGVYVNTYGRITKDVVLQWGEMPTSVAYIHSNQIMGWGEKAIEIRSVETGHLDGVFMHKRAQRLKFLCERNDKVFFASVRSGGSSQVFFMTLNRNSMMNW
UniProt Q05397: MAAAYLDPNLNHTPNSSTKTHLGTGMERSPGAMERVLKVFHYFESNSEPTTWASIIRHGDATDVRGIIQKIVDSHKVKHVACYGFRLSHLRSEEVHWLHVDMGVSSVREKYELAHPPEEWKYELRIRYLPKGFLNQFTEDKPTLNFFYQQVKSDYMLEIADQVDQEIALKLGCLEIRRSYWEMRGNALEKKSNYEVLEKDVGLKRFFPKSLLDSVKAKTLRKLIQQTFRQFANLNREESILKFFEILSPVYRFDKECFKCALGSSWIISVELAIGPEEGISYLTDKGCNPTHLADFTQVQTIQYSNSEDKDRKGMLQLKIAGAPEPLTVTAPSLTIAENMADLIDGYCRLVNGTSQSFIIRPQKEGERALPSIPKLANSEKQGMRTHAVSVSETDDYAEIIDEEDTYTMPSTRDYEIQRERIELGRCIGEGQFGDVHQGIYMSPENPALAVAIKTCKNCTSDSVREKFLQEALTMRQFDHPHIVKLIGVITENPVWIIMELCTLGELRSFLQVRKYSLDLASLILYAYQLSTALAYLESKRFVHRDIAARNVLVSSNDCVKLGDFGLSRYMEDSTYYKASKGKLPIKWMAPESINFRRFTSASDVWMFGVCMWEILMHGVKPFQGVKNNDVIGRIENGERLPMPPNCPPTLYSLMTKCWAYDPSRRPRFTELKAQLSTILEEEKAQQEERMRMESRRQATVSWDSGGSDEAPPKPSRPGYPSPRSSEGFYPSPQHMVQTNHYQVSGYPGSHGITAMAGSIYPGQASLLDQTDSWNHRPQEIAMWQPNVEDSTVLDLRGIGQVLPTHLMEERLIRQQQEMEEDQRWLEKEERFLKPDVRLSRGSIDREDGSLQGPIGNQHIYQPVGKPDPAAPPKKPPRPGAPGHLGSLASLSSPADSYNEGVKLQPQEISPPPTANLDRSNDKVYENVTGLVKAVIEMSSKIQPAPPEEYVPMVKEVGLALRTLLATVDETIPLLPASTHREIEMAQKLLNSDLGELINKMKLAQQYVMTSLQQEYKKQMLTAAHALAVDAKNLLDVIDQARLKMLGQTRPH
UniProt Q86UX7: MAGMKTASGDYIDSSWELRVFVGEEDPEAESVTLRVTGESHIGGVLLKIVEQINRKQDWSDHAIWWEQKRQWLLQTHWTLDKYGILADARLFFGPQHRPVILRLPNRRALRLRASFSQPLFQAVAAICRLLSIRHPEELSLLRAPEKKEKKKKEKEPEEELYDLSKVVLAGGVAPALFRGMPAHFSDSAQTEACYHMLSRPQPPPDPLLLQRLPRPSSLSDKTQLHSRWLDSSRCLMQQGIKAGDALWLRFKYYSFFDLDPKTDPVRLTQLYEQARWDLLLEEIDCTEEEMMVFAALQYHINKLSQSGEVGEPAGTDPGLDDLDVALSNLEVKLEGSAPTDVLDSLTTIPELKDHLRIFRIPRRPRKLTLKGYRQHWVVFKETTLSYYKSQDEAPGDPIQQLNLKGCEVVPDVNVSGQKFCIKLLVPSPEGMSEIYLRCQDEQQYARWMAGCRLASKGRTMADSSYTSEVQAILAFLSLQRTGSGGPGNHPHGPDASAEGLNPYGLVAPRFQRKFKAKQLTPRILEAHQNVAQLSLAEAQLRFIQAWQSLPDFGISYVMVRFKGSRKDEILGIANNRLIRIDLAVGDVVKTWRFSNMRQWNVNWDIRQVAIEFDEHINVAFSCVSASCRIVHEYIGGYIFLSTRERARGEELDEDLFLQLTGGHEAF
UniProt P49023: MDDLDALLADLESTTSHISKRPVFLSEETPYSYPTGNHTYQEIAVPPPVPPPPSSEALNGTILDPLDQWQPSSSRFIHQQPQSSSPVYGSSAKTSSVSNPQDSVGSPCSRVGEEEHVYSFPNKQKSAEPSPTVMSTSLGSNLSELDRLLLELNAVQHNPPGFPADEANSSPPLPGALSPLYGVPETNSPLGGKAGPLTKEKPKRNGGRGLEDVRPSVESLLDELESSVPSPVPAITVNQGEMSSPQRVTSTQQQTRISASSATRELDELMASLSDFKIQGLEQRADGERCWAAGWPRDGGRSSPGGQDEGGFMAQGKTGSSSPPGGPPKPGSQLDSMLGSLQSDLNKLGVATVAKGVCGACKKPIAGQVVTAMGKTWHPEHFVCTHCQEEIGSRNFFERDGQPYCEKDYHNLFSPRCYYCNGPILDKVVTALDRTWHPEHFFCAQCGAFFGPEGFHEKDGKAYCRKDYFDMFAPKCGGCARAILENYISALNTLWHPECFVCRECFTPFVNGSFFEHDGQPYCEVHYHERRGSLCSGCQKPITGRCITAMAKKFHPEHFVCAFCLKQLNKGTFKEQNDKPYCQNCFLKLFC
UniProt P21333: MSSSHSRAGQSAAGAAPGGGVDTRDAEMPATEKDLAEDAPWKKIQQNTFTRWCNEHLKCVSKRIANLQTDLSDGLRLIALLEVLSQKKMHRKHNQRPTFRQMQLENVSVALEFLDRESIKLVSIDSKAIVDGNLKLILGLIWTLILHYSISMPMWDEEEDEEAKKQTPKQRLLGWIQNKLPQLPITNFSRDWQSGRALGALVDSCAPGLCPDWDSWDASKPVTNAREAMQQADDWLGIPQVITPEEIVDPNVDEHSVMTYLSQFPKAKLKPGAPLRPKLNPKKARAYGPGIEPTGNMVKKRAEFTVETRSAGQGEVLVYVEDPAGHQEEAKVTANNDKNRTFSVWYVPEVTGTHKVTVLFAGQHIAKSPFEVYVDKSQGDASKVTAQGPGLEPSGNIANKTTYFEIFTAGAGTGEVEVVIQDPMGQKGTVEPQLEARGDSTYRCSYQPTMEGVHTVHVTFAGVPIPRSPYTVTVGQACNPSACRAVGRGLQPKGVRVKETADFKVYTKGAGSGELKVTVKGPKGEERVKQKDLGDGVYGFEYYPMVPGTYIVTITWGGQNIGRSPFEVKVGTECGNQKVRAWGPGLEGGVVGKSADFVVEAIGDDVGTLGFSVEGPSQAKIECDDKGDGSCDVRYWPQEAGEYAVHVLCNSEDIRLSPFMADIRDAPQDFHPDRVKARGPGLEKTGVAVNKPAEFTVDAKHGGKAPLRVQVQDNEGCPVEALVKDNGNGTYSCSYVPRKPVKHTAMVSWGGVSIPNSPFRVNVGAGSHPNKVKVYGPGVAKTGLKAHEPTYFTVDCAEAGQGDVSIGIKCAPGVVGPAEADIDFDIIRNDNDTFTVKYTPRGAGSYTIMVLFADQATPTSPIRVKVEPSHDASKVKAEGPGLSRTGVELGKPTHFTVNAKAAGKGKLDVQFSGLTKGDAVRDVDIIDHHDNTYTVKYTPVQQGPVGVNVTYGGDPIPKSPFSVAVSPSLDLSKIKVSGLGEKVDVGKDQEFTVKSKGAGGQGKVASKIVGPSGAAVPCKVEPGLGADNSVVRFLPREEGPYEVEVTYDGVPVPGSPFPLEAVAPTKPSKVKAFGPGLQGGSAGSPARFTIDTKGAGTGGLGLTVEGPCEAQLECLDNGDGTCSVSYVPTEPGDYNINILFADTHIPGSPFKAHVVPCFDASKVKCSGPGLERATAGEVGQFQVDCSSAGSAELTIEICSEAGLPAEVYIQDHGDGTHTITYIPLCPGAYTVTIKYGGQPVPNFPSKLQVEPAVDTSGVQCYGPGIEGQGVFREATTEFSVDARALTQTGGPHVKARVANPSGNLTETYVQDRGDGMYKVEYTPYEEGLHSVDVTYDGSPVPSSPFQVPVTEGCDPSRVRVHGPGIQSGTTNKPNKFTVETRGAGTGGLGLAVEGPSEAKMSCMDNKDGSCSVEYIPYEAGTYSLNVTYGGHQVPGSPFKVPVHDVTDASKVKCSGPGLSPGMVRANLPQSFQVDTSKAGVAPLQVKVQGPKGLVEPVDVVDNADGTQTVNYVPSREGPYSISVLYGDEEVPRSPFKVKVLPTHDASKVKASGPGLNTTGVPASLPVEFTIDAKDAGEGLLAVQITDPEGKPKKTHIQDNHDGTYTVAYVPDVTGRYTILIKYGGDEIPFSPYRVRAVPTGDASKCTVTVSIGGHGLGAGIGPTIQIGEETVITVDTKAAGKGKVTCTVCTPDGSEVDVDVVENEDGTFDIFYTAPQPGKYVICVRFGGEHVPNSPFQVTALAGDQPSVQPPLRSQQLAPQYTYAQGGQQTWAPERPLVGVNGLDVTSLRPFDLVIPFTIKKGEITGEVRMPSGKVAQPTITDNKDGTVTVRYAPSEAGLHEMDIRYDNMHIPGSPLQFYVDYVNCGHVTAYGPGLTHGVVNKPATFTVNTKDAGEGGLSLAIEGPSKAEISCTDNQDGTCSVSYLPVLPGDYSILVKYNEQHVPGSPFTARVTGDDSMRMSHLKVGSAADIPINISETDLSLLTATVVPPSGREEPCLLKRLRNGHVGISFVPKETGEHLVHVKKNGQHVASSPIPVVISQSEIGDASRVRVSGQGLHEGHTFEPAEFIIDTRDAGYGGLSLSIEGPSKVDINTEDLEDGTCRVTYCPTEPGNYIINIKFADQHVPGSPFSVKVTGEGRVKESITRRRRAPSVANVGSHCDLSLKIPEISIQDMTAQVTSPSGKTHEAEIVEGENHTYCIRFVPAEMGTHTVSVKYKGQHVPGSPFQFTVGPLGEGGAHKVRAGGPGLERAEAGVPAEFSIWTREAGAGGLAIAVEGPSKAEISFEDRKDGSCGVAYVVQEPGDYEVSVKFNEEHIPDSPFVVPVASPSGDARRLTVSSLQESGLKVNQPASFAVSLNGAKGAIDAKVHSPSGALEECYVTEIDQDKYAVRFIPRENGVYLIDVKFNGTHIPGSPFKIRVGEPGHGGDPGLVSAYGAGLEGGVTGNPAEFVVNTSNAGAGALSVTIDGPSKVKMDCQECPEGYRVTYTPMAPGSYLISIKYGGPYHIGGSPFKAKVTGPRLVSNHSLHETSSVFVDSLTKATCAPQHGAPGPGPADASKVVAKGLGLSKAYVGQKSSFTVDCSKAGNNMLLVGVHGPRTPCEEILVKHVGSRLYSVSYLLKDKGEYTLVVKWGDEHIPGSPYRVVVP

B1: Rap2a (protein, UniProt P10114 1-183)
chain: MREYKVVVLGSGGVGKSALTVQFVTGTFIEKYDPTIEDFYRKEIEVDSSPSVLEILDTAGTEQFASMRDLYIKNGQGFILVYSLVNQQSFQDIKPMRDQIIRVKRYEKVPVILVGNKVDLESEREVSSSEGRALAEEWGCPFMETSAKSKTMVDELFAEIVRQMNYAAQPDKDDPCCSACNIQ

target: TRAF2 and NCK interacting kinase (human (endogenous in platelets)) (UniProt Q9UKE5); assay: co-IP; endogenous TNIK immunoprecipitated (1 ug TNIK antibody, protein A/G beads) from lysates of resting or collagen-stimulated (25 ug/mL, 3 min) human platelets prepared under non-aggregating conditions; 1% NP40 lysis buffer (150 mM NaCl, 10 mM Tris, 5 mM EDTA, pH 7.3); beads washed in 0.5% NP40 buffer; immunoblot of the precipitate

binding, binds:
focal adhesion kinase (from UniProt Q05397 1-1052)
kindlin-3 (from UniProt Q86UX7 1-667)
paxillin (from UniProt P49023 1-591)
filamin A (from UniProt P21333 1-2647)
B1
